# Test results published in PubChem BioAssay AID493014 (National Center for Advancing Translational Sciences (NCATS), 2011).
# This is one part of the list. These are further read-outs of the screen, such as a control signal, another cell line or another target. No call is given for them. The list favours compounds with an active or inconclusive main result. Potencies come from curve fits of mixed quality, noted in brackets.
# Test: qHTS Assay to Find Inhibitors of Chronic Active B-Cell Receptor Signaling
# Conditions: ABC-DLBCL IkBa-CBG/CBR reporter, luminescence ratio (green luciferase fused to IkBa over red control in TMD8 lymphoma cells), 4 h
# Outline: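 Concentration-response series (up to 46 uM) were applied to TMD8 dual-reporter cells for 4 h at 37C with doxycycline. Green/red ratio, after filter-overlap correction, defined %Activity; red signal alone was normalised to basal cells and zero luminescence.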
# [1] = measured here: IkBa-CBG green luminescence
# [2] = measured here: CBR red luminescence, cell number
Compound,AC50 [1],AC50 [2]
COC(=O)CSc1nc2ccc(N)cc2s1,"11.2 µM [rising, partial curve, poor fit]",–
CC(C)SCc1nc2ccccc2[nH]1,"29.1 µM [falling, single point]",–
O=C(COn1nnc2ccccc21)NCC1CCCCC1,–,"3.26 µM [rising, full curve, poor fit]"
CCOc1ccc(OCCCCN2CCCC2)cc1,–,"2.06 µM [rising, partial curve, poor fit]"
COc1ccc(-c2cc(C(=O)N3CCCC3)no2)cc1OC,–,"31.6 µM [falling, single point]"
CC(C)[C@H](N)c1cn([C@@H](CO)C(=O)N2CCNCC2)nn1,–,"2.06 µM [falling, partial curve, poor fit]"
O=C(COC(=O)c1ccc(Cl)c(S(=O)(=O)N2CCCC2)c1)NCc1cccs1,–,"35.5 µM [rising, single point]"
COc1ccc(OCCNS(=O)(=O)c2ccc3oc4ccccc4c3c2)cc1,–,"17.8 µM [rising, partial curve, poor fit]"
Nc1c(C(=O)c2ccccc2)sc2nsc(SCCN3CCCC3)c12,–,"7.08 µM [falling, full curve]"
Oc1ccccc1C1CC(c2cccs2)=NC(c2cccc(Br)c2)N1 (stereo not drawn),–,"7.94 µM [falling, partial curve, poor fit]"
C=CCN(c1nc(C)cc(OC)n1)S(=O)(=O)c1ccc(C)cc1,–,"11.2 µM [rising, partial curve, poor fit]"
Brc1ccc(-c2nc(-c3ccncc3)no2)o1,–,"0.259 µM [rising, full curve, poor fit]"
C#CCOCCOCCOCCNc1nc(N2CCN(C(=O)[C@H](CCC(=O)O)n3cc(C(N)CO)nn3)CC2)nc(N2CCN(C(=O)[C@H](CCC(=O)O)n3cc(C(N)CC(C)C)nn3)CC2)n1 (stereo partly drawn),–,"35.5 µM [falling, single point]"
Cc1ccc(/C=N/NC(=O)c2cc(-c3ccncc3)nc3ccccc23)o1,"10 µM [falling, partial curve]","11.2 µM [rising, partial curve]"
COc1cc(NC(=O)C/C(C)=N/NC(=O)c2cccc(O)c2)c(OC)cc1Cl,–,"14.6 µM [falling, partial curve]"
Clc1cccc(OCCN2CCOCC2)c1,–,"5.62 µM [rising, single point]"
CCN(CC)CCNC(=O)CCc1c(C)nc2c(c(C)nn2-c2ccc(C)c(C)c2)c1C,–,"10 µM [falling, partial curve, poor fit]"
O=C(O)c1ccc2c3c(ncnc13)-c1ccccc1C2=O,–,"11.2 µM [falling, partial curve]"
CC(=O)Nc1cccc(NC(=O)C(=O)Nc2ccc3c(c2)N(C(=O)C2CC2)CCC3)c1,–,"5.8 µM [falling, partial curve]"
COC(=O)CCC(=O)Nc1ccc2oc3c(c2c1)CCCC3,–,"10 µM [falling, partial curve, poor fit]"
O=C(CSc1cn[nH]n1)Nc1nc2ccccc2s1,–,"6.31 µM [falling, partial curve, poor fit]"
CSc1ccc(CN(C)C(=O)CN2C(=O)NC3(CCCC3)C2=O)cc1,–,"18.4 µM [falling, partial curve]"

Compound,AC50 [1],AC50 [2]
Cc1ccccc1C(=O)NNC(=O)/C=C/c1ccccc1,–,"10 µM [falling, partial curve]"
Cc1ccc2nc(-c3ccc(NC(=O)CCS(=O)(=O)c4ccccc4)cc3)sc2c1,–,"0.326 µM [rising, full curve]"
CCCCn1c(-c2cccnc2)nc2cc3[nH]c(=O)c(C(C)C)nc3cc21,–,"20 µM [falling, partial curve, poor fit]"
COc1cc(NS(=O)(=O)c2cc(Br)cc3c2N(C(=O)C2CC2)CC3)cc(OC)c1,–,"14.1 µM [falling, single point]"
CCSc1nnc(NC(=O)C2Cc3ccccc3CN2S(=O)(=O)CC)s1 (stereo not drawn),–,"1.64 µM [rising, full curve, poor fit]"
NNC(=O)COc1ccccc1[N+](=O)[O-],–,"12.6 µM [rising, partial curve]"
C=CCn1cnc2sc(C(=O)Nc3ccccc3OC)c(C)c2c1=O,–,"35.5 µM [rising, single point]"
OCCN1CCN(c2nc(-c3ccccc3)c3cc(Br)ccc3n2)CC1,–,"7.94 µM [falling, partial curve, poor fit]"
CCOC(=O)Cn1cc(/C=N/NC(=O)c2cc3ccccc3o2)c2ccccc21,–,"7.94 µM [falling, partial curve]"
COC(=O)/C=C1/S/C(=N/NC(=O)c2ccccc2C)NC1=O,–,"1.64 µM [falling, full curve]"
C/C(=N\NC(=O)c1ccc(NS(=O)(=O)c2cccs2)cc1)c1ccccn1,–,"8.91 µM [falling, partial curve, poor fit]"
COc1ccccc1N1CCN(C(=O)c2ccc(-c3ccccc3)cc2)CC1,–,"22.4 µM [falling, single point]"
Cc1nonc1OC(C)CNCCNc1ccc([N+](=O)[O-])cc1 (stereo not drawn),–,"0.708 µM [rising, partial curve, poor fit]"
CCOC(=O)C1(Cc2ccc(OC)cc2)CCN(S(C)(=O)=O)CC1,–,"8.91 µM [rising, partial curve, poor fit]"
COc1cccc(C(=O)NNC(=O)C2CC(C)=C(C)CC2C(=O)O)c1 (stereo not drawn),–,"4.47 µM [falling, partial curve]"
O=Cc1cc2ccccc2nc1SCc1ccc(Cl)c(Cl)c1,"1.58 µM [falling, partial curve]","0.708 µM [rising, full curve, poor fit]"
Cc1ccc(Nc2cc(C)nn2-c2nc(C)cc(=O)[nH]2)cc1,"3.55 µM [falling, single point]","5.62 µM [rising, single point]"
Nc1cc(C2CCCC2)nn1-c1ccccc1,–,"11.2 µM [falling, single point]"
CCOc1ccc(NC(=O)C/C(C)=N/NC(=O)c2cnccn2)cc1,–,"5.62 µM [falling, partial curve, poor fit]"
COc1ccc(/C=C2/N=C(SCC(=O)Nc3cc(C)on3)N(c3ccccc3)C2=O)cc1,–,"3.66 µM [rising, full curve, poor fit]"
Cc1cc(OCC(=O)NC(C)(C)C)ccc1Cl,–,"6.51 µM [rising, full curve, poor fit]"
Cc1ccc(CN2CCN(C(=O)c3cccc4ccccc34)CC2)cc1,–,"22.4 µM [falling, single point]"

Compound,AC50 [1],AC50 [2]
COc1ccc2nc(Nc3sc4c(c3C(N)=O)CCCC4)sc2c1,–,"29.1 µM [falling, single point]"
CN(C)C(=O)c1ccc(-c2cc(C(F)(F)F)nn2C)s1,–,"17.8 µM [rising, partial curve, poor fit]"
CCc1ccc(NC(=O)c2n[nH]c(=O)c3ccccc23)cc1,–,"1 µM [rising, full curve]"
CC(C)C(=O)Nc1nnc(SCC(=O)NCc2ccc3c(c2)OCO3)s1,–,"12.6 µM [rising, partial curve, poor fit]"
Cc1cccc([C@@H](NC(=O)OC(C)(C)C)C(=O)OC(C)(C)C)c1,–,"7.31 µM [rising, partial curve, poor fit]"
CC(/C=C/c1ccccc1)=N\NC(N)=S,"3.98 µM [falling, full curve]","3.16 µM [falling, single point]"
COc1ccccc1N1CCN(c2nc(C)nc3c2oc2ccccc23)CC1,–,"20 µM [falling, partial curve, poor fit]"
O=C(CCN1CCc2ccccc2C1)c1ccc2c(c1)OCCO2,–,"5.62 µM [falling, partial curve]"
CN1CCN(S(=O)(=O)c2ccc(N3CCN(C(=O)c4ccccc4)CC3)nc2)CC1,–,"0.355 µM [falling, partial curve, poor fit]"
Cc1ccc(OCC(O)CNCc2ccc(F)cc2)cc1 (stereo not drawn),–,"3.16 µM [rising, full curve]"
O=C(O)c1cc(N/N=C/c2ccc(OCc3ccccc3)cc2)ccc1Cl,–,"6.31 µM [falling, partial curve]"
Oc1ccc(CCNc2c3ccccc3nc3ccccc23)cc1O,–,"7.94 µM [falling, partial curve]"
CCOc1cc(/C=C/C(=O)O)ccc1OCc1ccccc1,–,"28.2 µM [falling, single point]"
O=C1N/C(=C/c2cccs2)C(=O)N1Cc1ccc(Br)cc1,–,"3.16 µM [falling, partial curve, poor fit]"
Cc1ccc(/C=N/Nc2ccnc3cc(Cl)ccc23)c(C)c1,–,"0.366 µM [rising, full curve]"
CSc1cccc(NS(=O)(=O)c2ccc(F)cc2)c1,–,"3.26 µM [falling, partial curve, poor fit]"
Cc1nn(CC(=O)NC2CCS(=O)(=O)C2)c(C)c1[N+](=O)[O-] (stereo not drawn),–,"32.6 µM [rising, partial curve, poor fit]"
COC(=O)c1ccc(N2C(=O)CC(NCc3ccccc3)C2=O)cc1 (stereo not drawn),–,"23.1 µM [rising, single point]"
CCOC(=O)Nc1nc2ccccc2s1,–,"0.0259 µM [rising, full curve, poor fit]"
Cc1ccc(NC(=O)Cn2c(=O)oc3ccccc32)cc1,–,"1.26 µM [falling, partial curve, poor fit]"

# Entries of single compounds from above. Values in the order: AC50 [1] | AC50 [2]
# Cc1cccc([C@@H](NC(=O)OC(C)(C)C)C(=O)OC(C)(C)C)c1 reads – | 7.31 µM [rising, partial curve, poor fit]
# CCOc1cc(/C=C/C(=O)O)ccc1OCc1ccccc1 reads – | 28.2 µM [falling, single point]
# COC(=O)c1ccc(N2C(=O)CC(NCc3ccccc3)C2=O)cc1 (stereo not drawn) reads – | 23.1 µM [rising, single point]
# COc1ccccc1N1CCN(c2nc(C)nc3c2oc2ccccc23)CC1 reads – | 20 µM [falling, partial curve, poor fit]
